According to PubChem BioAssay AID1347076 (National Center for Advancing Translational Sciences (NCATS), 2019):
Among all 400,000 compounds or so, about 13,000 (3.2%) were called active. The inconclusive results got no clear call from the source; some entries with a clear call stand among them for comparison. Calls come from the whole dose curve; as a rule, active = well fitted cell-killing curve with a large enough effect; inconclusive = small, poorly fitted or top-dose-only effect, or effect the other way; inactive = flat fitted curve, though single readings scatter. Potencies of inconclusive entries are doubtful fits and often do not repeat.

Assay: qHTS assay for MDR1-selective chemotherapeutics: Primary screen using the drug-selected MDR subline cells KB-V1; note: nearly all actives have a fitted effect of over 60% in size
Conditions: KB-V1 MDR cells viability, CellTiter-Glo, 72 h; activity change, negative = cytotoxicity: at 46.1 µM (top of the series)
Method in brief: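 Drug-selected KB-V1 cells, grown in DMEM lacking phenol red with 10% FBS, receive compound titrations; after three days at 37 degrees C, surviving cell ATP is quantified by CellTiter-Glo luminescence and responses normalized and curve-fitted.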
% is set by controls: 0 for no effect and ±100 for the full control effect; potency is the fitted concentration of half-maximal effect.

Row | Structure (SMILES) | Potency | activity change, negative = cytotoxicity
1 | O=C(CSc1ncnc2c1cnn2-c1ccc(F)cc1)NC1CCCC1 | inconclusive: 16.4 µM [cytotoxic, partial curve] | –
2 | COc1ccccc1-n1nnnc1SC(C)C(=O)NC1CCCC1 (centres undefined) | inconclusive: 13 µM [cytotoxic, partial curve, poor fit] | –
3 | Cc1cc(C(=O)CN2C(=O)C(=O)N(C3CCCC3)C2=O)c(C)n1-c1ccc(F)cc1 | inconclusive: 25.9 µM [cytotoxic, single point] | –
4 | C/C(=N\NC(=O)COc1ccc(C)cc1C(C)C)c1ccc(-n2ccnc2)cc1 | inconclusive: 13 µM [cytotoxic, partial curve] | –
5 | COc1cccc(/C=N/NC(=O)c2[nH]nc3c2CCc2ccccc2-3)c1 | inconclusive: 29.1 µM [cytotoxic, single point] | –
6 | CC(=O)N1CCCc2ccc(NS(=O)(=O)c3ccccc3)cc21 | inconclusive: 10.3 µM [cytotoxic, partial curve] | –
7 | O=C(Nc1cccnc1)Nc1ccccc1Cl | inconclusive: 20.6 µM [cytotoxic, single point] | –
8 | Cc1cccnc1CCNCc1c(C(=O)N2C[C@@H](C)O[C@@H](C)C2)nc2ccc(Cl)cn12 | inconclusive: 6.51 µM [cytotoxic, full curve, poor fit] | –
9 | COc1cccc(CN(C)CC(=O)Nc2c(C)cccc2C(C)C)c1 | inconclusive: 14.6 µM [cytotoxic, partial curve] | –
10 | COc1ccc(CCN(Cc2cccs2)S(=O)(=O)c2ccc(-n3cnnn3)cc2)cc1OC | inconclusive: 7.31 µM [cytotoxic, partial curve, poor fit] | –
11 | CC(=O)NC(=S)Nc1ccc(NC(=O)c2cccnc2Cl)cc1 | inconclusive: 29.1 µM [rising, single point] | –
12 | CCOc1ccc2nc3sc(C(=O)N4CCOCC4)c(N)c3cc2c1 | inconclusive: 8.2 µM [cytotoxic, partial curve] | –
13 | CCOC(=O)c1cnc(SC)nc1Oc1cccc(NS(=O)(=O)c2ccc(F)cc2)c1 | – | inactive: 0%
14 | O=C1CC(NS(=O)(=O)c2ccc([N+](=O)[O-])cc2)CN1c1ccc2c(c1)OCCO2 (centres undefined) | – | inactive: 4.28%
15 | O=C(CSc1nc(-c2ccccc2)c(-c2ccccc2)o1)N1CCOCC1 | inconclusive: 20.6 µM [cytotoxic, single point] | –
16 | CCCCNC(=NCc1cccc(C(F)(F)F)c1)Nc1ccccc1 | active: 20.6 µM | –
17 | Cc1ccc(C(=O)Nc2ccc3c(c2)OCCO3)o1 | active: 20.6 µM | –
18 | CN(C)c1nc(OCCNC(=O)COc2ccc(Cl)cc2Cl)nc(N(C)C)n1 | inconclusive: 8.2 µM [cytotoxic, partial curve] | –
19 | CC(C)(C)NC(=O)CN(Cc1ccco1)C(=O)CCC(=O)Nc1nccs1 | inconclusive: 29.1 µM [rising, single point] | –
20 | Cc1ccc(Oc2ncccc2COC(=O)Nc2ccccc2C)cc1 | inconclusive: 25.9 µM [cytotoxic, single point] | –
21 | COc1ccc(NC(=O)CSCC(=O)Nc2cc(Cl)ccc2N2CCOCC2)cc1 | inconclusive: 7.31 µM [cytotoxic, partial curve] | –
22 | CN(C)c1ccc(/C=C2/NC(=O)NC2=O)cc1 | inconclusive: 25.9 µM [cytotoxic, single point] | –
23 | CSc1cccc(Nc2cc(C(=O)NCCCN(Cc3ccccc3)C(C)C)c3ccccc3n2)c1 | active: 16.4 µM | –

Row | Structure (SMILES) | Potency | activity change, negative = cytotoxicity
24 | CN(C(=O)CSc1ncnc2sccc12)C1CCS(=O)(=O)C1 (centres undefined) | inconclusive: 2.91 µM [rising, partial curve, poor fit] | –
25 | COc1ccccc1N1CCN(S(=O)(=O)c2cc3[nH]c(=O)c(=O)[nH]c3cc2C)CC1 | inconclusive: 32.6 µM [rising, single point] | –
26 | Cc1ccc(C2CC(=O)Nc3cc4c(cc32)OCCO4)s1 (centres undefined) | inconclusive: 23.1 µM [cytotoxic, single point] | –
27 | Cc1c(C(=O)OC/C(O)=C(\C#N)c2nc3ccccc3[nH]2)oc2ccccc12 | – | inactive: 2.22%
28 | CCOc1ccc(CNC(=O)CCC(=O)N2CCSc3ccccc32)cc1 | inconclusive: 1.46 µM [cytotoxic, full curve] | –
29 | CCC(C)(C)C1CCc2[nH]nc(C(=O)NC3CCCCC3)c2C1 (centres undefined) | inconclusive: 9.2 µM [rising, partial curve] | –
30 | COc1ccc(-c2n[nH]c(=S)n2/N=C/C=C\c2ccccc2OC)cc1 | inconclusive: 20.6 µM [cytotoxic, single point] | –
31 | CC(=O)c1cc(C#N)c(SCc2ccncc2)nc1C | – | inactive: 2.68%
32 | CC(=O)Nc1ccc(C=NNc2ccc([N+](=O)[O-])cc2S(=O)(=O)Nc2ccccc2C(=O)O)cc1 | – | inactive: 11.9%
33 | COc1ccc([C@H]2CC(=O)C[C@@H](CCn3cc(-c4ccc(F)cc4)nn3)O2)cc1 | inconclusive: 13 µM [cytotoxic, partial curve, poor fit] | –
34 | Cc1ccc(Cn2cc(CN3CC(N4CCN(Cc5ccccc5F)CC4)CS3(=O)=O)nn2)cc1 (centres undefined) | active: 10.3 µM | –
35 | CCc1nc(SCC(=O)Nc2ccc(OC)cc2[N+](=O)[O-])n[nH]1 | – | inactive: 18.8%
36 | COc1ccc(C(=O)NC(=S)N2CCN(c3ccccc3O)CC2)cc1 | active: 20.6 µM | –
37 | CCc1c(C)nc2ccc(Br)cc2c1SCCC#N | inconclusive: 7.31 µM [cytotoxic, partial curve] | –
38 | COCCCNC(=O)C1CCCN(S(=O)(=O)c2ccc3c(c2)oc(=O)n3C)C1 (centres undefined) | inconclusive: 29.1 µM [rising, single point] | –
39 | Cc1ccccc1NC(=S)N1CCN(c2ccccc2C)CC1 | – | inconclusive: -26.2%
40 | Cc1ccc(NC(=O)CN(C)C(=O)COC(=O)CNS(=O)(=O)c2ccc(F)c(F)c2F)cc1 | – | inactive: 24.6%
41 | CCOC(=O)c1cccc(NC(=O)CCn2nc(C)c3c(C)n(-c4ccccc4)nc3c2=O)c1 | – | inactive: 21.5%
42 | COc1ccccc1/C=C/C(=O)N1CCCC1 | inconclusive: 20.6 µM [cytotoxic, single point] | –
43 | CC1=Nc2cc(C(=O)NC3CCCC3)ccc2Sc2ccc(Br)cc21 | inconclusive: 18.4 µM [cytotoxic, single point] | –
44 | CC1(C(=O)O)CCCN(C(=O)c2cc3ccccc3s2)C1 (centres undefined) | – | inactive: 4.08%
45 | CN(c1ccccc1C(=O)O)S(=O)(=O)c1ccc2[nH]c(=O)[nH]c2c1 | inconclusive: 29.1 µM [rising, partial curve, poor fit] | –
46 | Cc1cc(OC(=O)c2cccs2)ccc1C(C)C | inconclusive: 18.4 µM [rising, single point] | –

Full records, looked up by structure:
COCCCNC(=O)C1CCCN(S(=O)(=O)c2ccc3c(c2)oc(=O)n3C)C1 (centres undefined) as listed: Potency: inconclusive: 29.1 µM [rising, single point]
Cc1ccc(NC(=O)CN(C)C(=O)COC(=O)CNS(=O)(=O)c2ccc(F)c(F)c2F)cc1 as listed: activity change, negative = cytotoxicity: inactive: 24.6%
CC(=O)c1cc(C#N)c(SCc2ccncc2)nc1C as listed: activity change, negative = cytotoxicity: inactive: 2.68%
COc1ccccc1/C=C/C(=O)N1CCCC1 as listed: Potency: inconclusive: 20.6 µM [cytotoxic, single point]

Further results follow.

Row | Structure (SMILES) | Potency | activity change, negative = cytotoxicity
47 | O=C(CCCN1C(=O)NC2(CCCC2)C1=O)Nc1ccc(Cl)c(S(=O)(=O)N2CCOCC2)c1 | inconclusive: 8.2 µM [rising, partial curve, poor fit] | –
48 | CC(Oc1ccc(Cl)cc1)C(=O)Nc1nccs1 (centres undefined) | inconclusive: 25.9 µM [cytotoxic, partial curve, poor fit] | –
49 | CC1(C)Cc2nc3oc4c(=S)nc[nH]c4c3cc2CO1 | inconclusive: 29.1 µM [rising, single point] | –
50 | CCN(C(=O)CSc1cccc[n+]1[O-])c1ccccc1 | inconclusive: 23.1 µM [cytotoxic, partial curve, poor fit] | –
51 | CC(=O)NC1=C(N(C)C2CCS(=O)(=O)C2)C(=O)c2ccccc2C1=O (centres undefined) | – | inactive: -2.85%
52 | CCO[C@@H]1OC(C(=O)N2CCOCC2)=C[C@H](c2ccc(Br)cc2)[C@H]1CCCO | inconclusive: 25.9 µM [cytotoxic, single point] | –
53 | Cc1ccc(C)c(NC(=O)N2CCC(N3CCN(Cc4ccc(F)cc4)C(=O)C3=O)CC2)c1 | – | inactive: 7.8%
54 | C/C(CC(=O)Nc1ccc(Cl)cc1C(F)(F)F)=N\NC(N)=S | – | inactive: 0.164%
55 | COc1cc(NC(=O)c2cccnc2Sc2ccc(Cl)cc2)cc(OC)c1OC | active: 5.17 µM | –
56 | CCN(CC)c1ccc(NC(=O)CN2CCN(CC(=O)Nc3ccccc3OC)CC2)cc1 | inconclusive: 10.3 µM [cytotoxic, partial curve, poor fit] | inconclusive: -10.6%
57 | OC[C@@H]1CN(Cc2ccc(-c3ccccc3)cc2)C[C@H](n2cnc3c(NCc4ccncc4)ncnc32)O1 | inconclusive: 6.51 µM [cytotoxic, partial curve, poor fit] | –
58 | CCOCCCn1c(SCC(=O)NCCCOC)nc2c(sc3ccccc32)c1=O | – | inactive: 8.14%
59 | CN(CC(=O)Nc1ccc(F)c(F)c1F)C(=O)c1ccc(-n2cncn2)cc1 | inconclusive: 20.6 µM [rising, single point] | –
60 | CC(C)CSC1=NSC2=NC(=O)/C(=C\c3cccs3)C(=N)N12 | inconclusive: 16.4 µM [cytotoxic, partial curve] | –
61 | CC(C)C(=O)Nc1cccc(-c2csc(-c3ccccc3)n2)c1 | – | inactive: -1.69%
62 | C=CCn1c(SCc2ccc(C#N)cc2)nnc1-c1cccc(OC)c1 | – | inactive: -6.79%
63 | Cc1ccc(C)c(N(C)C(=O)c2cc3c(=O)[nH]c4ccc(C)cc4c3s2)c1 | inconclusive: 16.4 µM [cytotoxic, partial curve] | –
64 | CCN(CCCNC(=O)CNC(=O)Cn1cnc2ccccc2c1=O)c1cccc(C)c1 | inconclusive: 29.1 µM [rising, single point] | –
65 | COc1ccc(S(=O)(=O)N(CC(=O)NN=C2CCN(C)CC2)c2cc(Cl)ccc2OC)cc1OC | – | inconclusive: 11.5%
66 | NC(=O)C1CCN(C(=O)/C=C/c2ccco2)CC1 | – | inactive: -10.2%
67 | O=C(N/N=C/c1ccncc1)c1cc2c(ccc3ccccc32)o1 | inconclusive: 11.6 µM [rising, partial curve, poor fit] | –
68 | CC12CN(C(=O)c3ccccc3Br)CC(C)(CN(C(=O)c3ccccc3Br)C1)C2=O | inconclusive: 0.0058 µM [rising, full curve, poor fit] | –
